Patent US10688131B2, “Peptides and scaffolds for use in immunotherapy against head and neck squamous cell carcinoma and other cancers” (Immatics Biotechnologies GmbH, priority 2016, dated 2020)

How the values were obtained:
[1] = test system: head and neck squamous cell carcinoma samples; test: Identification and label-free LC-MS quantitation of HLA-presented peptides (presentation profile) on HNSCC versus normal tissues; parameters: species or system human; key: very highly over-presented on tumors compared to a panel of normal tissues (+++); highly over-presented on tumors compared to a panel of normal tissues (++); over-presented on tumors compared to a panel of normal tissues (+); conditions: presentation score: over-presentation on head and neck squamous cell carcinoma tumors compared to a panel of normal tissues
[2] = test system: additional tumor types; test: LC-MS presentation of peptides on additional tumor types versus normal tissues; parameters: species or system human; conditions: for Other relevant organs/diseases: additional tumor types where over-presented on more than 5% of measured tumor samples, or presented on more than 5% with ratio of geometric means tumor vs normal larger than 3 (Table 4A); for Additional Entities: additional tumor types, same criteria, other normal tissue panel (Table 4B)

Substance	Peptide Presentation [1]	Other relevant organs/diseases [2]	Additional Entities [2]
31 (HLATVKLLV; listed as Homo sapiens) [compound 31]	+++	Urinary bladder cancer, Uterine Cancer	
49 (YLWEAHTNI; listed as Homo sapiens) [compound 49]	+++	Esophageal Cancer, Uterine Cancer	
39 (LLPEDDTRDNV; listed as Homo sapiens) [compound 39]	+++	BRCA, Esophageal Cancer, Urinary bladder cancer	
90 (TLNDGVVVQV; listed as Homo sapiens) [compound 90]	+	RCC, CLL, NHL, Esophageal Cancer, Urinary bladder cancer, Uterine Cancer	
58 (SLSDIQPCL; listed as Homo sapiens) [compound 58]	+++	Brain Cancer, BRCA, Esophageal Cancer, Urinary bladder cancer, Uterine Cancer	
74 (SLTSFLISL; listed as Homo sapiens) [compound 74]	+++	Urinary bladder cancer	
7 (ALEEANADLEV; listed as Homo sapiens) [compound 7]	+++	Esophageal Cancer, Urinary bladder cancer	
11 (VLFSSPPVI; listed as Homo sapiens) [compound 11]	+++	Melanoma	
4 (ILDINDNPPV; listed as Homo sapiens) [compound 4]	+++	BRCA, Esophageal Cancer, Urinary bladder cancer	
60 (SLGNFKDDLL; listed as Homo sapiens) [compound 60]	+++	NHL, Esophageal Cancer, Urinary bladder cancer	NSCLC
62 (ILSSACYTV; listed as Homo sapiens) [compound 62]	+++	RCC, BRCA, Esophageal Cancer	
83 (QLLQYVYNL; listed as Homo sapiens) [compound 83]	+++	SCLC, NHL, AML, Uterine Cancer	
29 (RLLPDLDEV; listed as Homo sapiens) [compound 29]	+++	AML	
17 (SIWPALTQV; listed as Homo sapiens) [compound 17]	+++	SCLC, AML, BRCA, Melanoma, Uterine Cancer, Gallbladder Cancer, Bile Duct Cancer	
71 (SLFPYVVLI; listed as Homo sapiens) [compound 71]	+++	Melanoma	
16 (ALKDSVQRA; listed as Homo sapiens) [compound 16]	+++	AML, BRCA, Melanoma, Esophageal Cancer, Urinary bladder cancer, Uterine Cancer	HCC
21 (FLHEPFSSV; listed as Homo sapiens) [compound 21]	+++	Urinary bladder cancer	
79 (GLHQDFPSVVL; listed as Homo sapiens) [compound 79]	+	NHL, BRCA, Uterine Cancer	
72 (SLDGNPLAV; listed as Homo sapiens) [compound 72]	+++	Esophageal Cancer, Uterine Cancer, Gallbladder Cancer, Bile Duct Cancer	
54 (RLSGEGVGPV; listed as Homo sapiens) [compound 54]	+++	Esophageal Cancer	
70 (FLFPAFLTA; listed as Homo sapiens) [compound 70]	+++	AML, Gallbladder Cancer, Bile Duct Cancer	
37 (ILLEDVFQL; listed as Homo sapiens) [compound 37]	+++	Gallbladder Cancer, Bile Duct Cancer	
8 (AQLNIGNVLPV; listed as Homo sapiens) [compound 8]	+++	Melanoma, Esophageal Cancer	Urinary bladder cancer
69 (YVMESMTYL; listed as Homo sapiens) [compound 69]	+	Urinary bladder cancer, Gallbladder Cancer, Bile Duct Cancer	
86 (SLQERQVFL; listed as Homo sapiens) [compound 86]	+++	NHL, Urinary bladder cancer	
61 (FVAGYIAGV; listed as Homo sapiens) [compound 61]	+++	NSCLC, SCLC, RCC, Brain Cancer, GC, CLL, NHL, Esophageal Cancer, Gallbladder Cancer, Bile Duct Cancer	HCC

Substance	Peptide Presentation [1]	Other relevant organs/diseases [2]	Additional Entities [2]
3 (SLYGLGGSKRISI; listed as Homo sapiens) [compound 3]	+++	Esophageal Cancer, Urinary bladder cancer	
1 (GLAGGFGGPGFPV; listed as Homo sapiens) [compound 1]	+++	Gallbladder Cancer, Bile Duct Cancer	
50 (ALSNVVHKV; listed as Homo sapiens) [compound 50]	+++	GC, BRCA, Esophageal Cancer, Urinary bladder cancer	NSCLC
10 (TLWPATPPKA; listed as Homo sapiens) [compound 10]	+++	Gallbladder Cancer, Bile Duct Cancer	
6 (ALYDAELSQM; listed as Homo sapiens) [compound 6]	+++		Esophageal Cancer
81 (VLAENPDIFAV; listed as Homo sapiens) [compound 81]	+++	SCLC, MCC, Melanoma, Urinary bladder cancer	
19 (ALAKLLPLL; listed as Homo sapiens) [compound 19]	+++	Esophageal Cancer, Urinary bladder cancer, Uterine Cancer	
32 (IQDAEGAIHEV; listed as Homo sapiens) [compound 32]	+++	NHL, Melanoma, Esophageal Cancer, Urinary bladder cancer	
56 (FLQLETEQV; listed as Homo sapiens) [compound 56]	+++	BRCA, Melanoma, Urinary bladder cancer, Uterine Cancer	
9 (STASAITPSV; listed as Homo sapiens) [compound 9]	+++	Melanoma	Esophageal Cancer
23 (SLPESGLLSV; listed as Homo sapiens) [compound 23]	+++	Esophageal Cancer	
20 (YLINEIDRIRA; listed as Homo sapiens) [compound 20]	+++	NSCLC, Urinary bladder cancer	
46 (GLISSIEAQL; listed as Homo sapiens) [compound 46]	+++	Esophageal Cancer, Urinary bladder cancer, Uterine Cancer	
67 (AQLNLIWQL; listed as Homo sapiens) [compound 67]	+	SCLC, Melanoma, OC, Uterine Cancer, Gallbladder Cancer, Bile Duct Cancer	
73 (YIDPYKLLPL; listed as Homo sapiens) [compound 73]	+++	CLL, NHL, AML, Melanoma	BRCA, Urinary bladder cancer
41 (RLNGEGVGQVNISV; listed as Homo sapiens) [compound 41]	+++	Esophageal Cancer	
51 (FLIPSIIFA; listed as Homo sapiens) [compound 51]	+++	Urinary bladder cancer, Uterine Cancer	
27 (YLAEPQWAV; listed as Homo sapiens) [compound 27]	+++	Esophageal Cancer, Urinary bladder cancer	
75 (ALASAPTSV; listed as Homo sapiens) [compound 75]	+++	BRCA, Esophageal Cancer, Uterine Cancer, Gallbladder Cancer, Bile Duct Cancer	HCC
85 (QLIEKITQV; listed as Homo sapiens) [compound 85]	+++	SCLC, NHL, Melanoma, Urinary bladder cancer, Gallbladder Cancer, Bile Duct Cancer	
78 (VLYGDVEEL; listed as Homo sapiens) [compound 78]	+++	CLL, Urinary bladder cancer, Gallbladder Cancer, Bile Duct Cancer	
63 (ALMDEINFMKM; listed as Homo sapiens) [compound 63]	++	NSCLC, SCLC, NHL	
48 (YLLDYPNNL; listed as Homo sapiens) [compound 48]	+++	NHL, BRCA, Melanoma, Esophageal Cancer, Urinary bladder cancer, Uterine Cancer, Gallbladder Cancer, Bile Duct Cancer	
47 (QLLEGELETL; listed as Homo sapiens) [compound 47]	+++	Urinary bladder cancer, Uterine Cancer	
42 (ALYTSGHLL; listed as Homo sapiens) [compound 42]	+++	Esophageal Cancer, Gallbladder Cancer, Bile Duct Cancer	
24 (LLIAINPQV; listed as Homo sapiens) [compound 24]	+++	AML, Urinary bladder cancer	
